Results are given in words; binding and its absence hold for the method and conditions named. Some entries that bind do so weakly or less than the wild type. Where a sequence is shown, tags or fusion partners need not be part of it. Blank lines part the entries; values can stand above or below the binder they belong to.
Legend:
[1] = target: Gallus gallus FANCD2 (untagged, from the co-expressed D2-I complex) (Gallus gallus) (UniProt Q68Y81); experiment: cryo-EM structure
[2] = target: His-tagged Gallus gallus FANCI (expressed alone) (Gallus gallus) (UniProt B0I564); experiment: SEC

By UniProt entry, the sequences of proteins in these tests, tags left out.
UniProt Q68Y81, whole entry: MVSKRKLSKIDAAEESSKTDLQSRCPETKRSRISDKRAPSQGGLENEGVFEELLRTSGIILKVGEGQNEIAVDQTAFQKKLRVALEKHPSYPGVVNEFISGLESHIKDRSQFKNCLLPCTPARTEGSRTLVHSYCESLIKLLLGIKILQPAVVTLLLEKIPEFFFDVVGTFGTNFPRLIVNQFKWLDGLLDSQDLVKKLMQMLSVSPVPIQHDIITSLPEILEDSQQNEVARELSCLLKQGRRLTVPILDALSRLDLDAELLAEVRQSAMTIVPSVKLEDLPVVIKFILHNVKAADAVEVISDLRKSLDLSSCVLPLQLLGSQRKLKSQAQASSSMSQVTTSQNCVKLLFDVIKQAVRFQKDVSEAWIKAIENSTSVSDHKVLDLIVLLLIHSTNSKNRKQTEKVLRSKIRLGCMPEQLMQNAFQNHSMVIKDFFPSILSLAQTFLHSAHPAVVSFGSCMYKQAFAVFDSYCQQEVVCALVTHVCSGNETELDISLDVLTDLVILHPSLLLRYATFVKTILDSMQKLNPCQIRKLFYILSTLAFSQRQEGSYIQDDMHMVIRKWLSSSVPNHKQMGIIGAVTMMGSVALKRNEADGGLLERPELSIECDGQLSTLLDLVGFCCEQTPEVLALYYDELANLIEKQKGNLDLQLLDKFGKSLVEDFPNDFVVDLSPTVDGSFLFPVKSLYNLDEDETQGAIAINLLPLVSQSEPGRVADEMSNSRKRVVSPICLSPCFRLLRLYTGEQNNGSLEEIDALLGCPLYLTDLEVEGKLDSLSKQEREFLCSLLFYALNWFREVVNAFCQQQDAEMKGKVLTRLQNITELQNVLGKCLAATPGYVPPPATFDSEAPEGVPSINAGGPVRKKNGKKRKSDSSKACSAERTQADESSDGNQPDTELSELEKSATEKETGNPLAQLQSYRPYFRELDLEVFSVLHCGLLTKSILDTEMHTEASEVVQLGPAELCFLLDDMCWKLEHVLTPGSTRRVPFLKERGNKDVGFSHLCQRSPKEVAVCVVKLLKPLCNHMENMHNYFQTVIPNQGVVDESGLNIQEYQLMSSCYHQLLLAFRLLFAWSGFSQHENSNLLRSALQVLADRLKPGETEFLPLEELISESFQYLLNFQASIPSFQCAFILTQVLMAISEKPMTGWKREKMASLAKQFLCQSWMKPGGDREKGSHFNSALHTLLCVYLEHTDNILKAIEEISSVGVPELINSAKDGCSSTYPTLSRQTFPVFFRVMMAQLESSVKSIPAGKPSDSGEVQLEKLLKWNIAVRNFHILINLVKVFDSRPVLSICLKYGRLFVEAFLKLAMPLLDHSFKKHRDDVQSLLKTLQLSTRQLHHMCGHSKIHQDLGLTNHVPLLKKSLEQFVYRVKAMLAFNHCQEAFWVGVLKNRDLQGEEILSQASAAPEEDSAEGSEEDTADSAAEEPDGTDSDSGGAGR

binding [1]: binds
B1: Gallus gallus FANCI (untagged, from the co-expressed D2-I complex) (protein, UniProt B0I564 1-1338)
chain: MAQRILQLAAEGSPERLQEALQGLTEGELGDMVTRQALRGRETAALLKGIFKGSPCSQQSGVLRRLQVYKHCVSLVESGDLHVGKVSEIIGLLMLEARQLPGHALAELATLFVEVIKRGSLSNGKSLELFSTVLTALSNSKESLAYGKGELNGEEFKKQLINTLCSSKWDPQCVIHLANMFRDIPLSGEELQFVVEKVLRMFSKLDLQEIPPLVYQLLLLSAKGSKKTVLEGIISFFNQLDKRQKEEQRVPQSADLEVATVPLDQLRHVEGTVILHIVSAINLDQDIGEELIKHLKTEQQKDPGKALCPFSVSLLLSTAVKHRLQEQIFDFLKTSITRSCKDLQILQASKFLQDLCPQQYDVTAVILEVVKNSAFGWDHVTQGLVDLGFSLMESYEPKKSFGGKAAETNLGLSKMPAQQACKLGASILLETFKVHEPIRSDILEQVLNRVLTKAASPVSHFIDLLSNIVVSAPLVLQNSSSRVTETFDNLSFLPIDTVQGLLRAVQPLLKVSMSVRDSLILVLQKAIFSRQLDARKAAVAGFLLLLRNFKILGSLTSSQCSQAIGATQVQADVHACYNSAANEAFCLEILGSLRRCLSQQADVRLMLYEGFYDVLRRNSQLASSIMETLLSQIKQYYLPQQDLLPPLKLEGCIMAQGDQIFLQEPLAHLLCCIQHCLAWYKSTVHLCKGAEDEEEEEDVGFEQNFEEMLESVTRRMIKSELEDFELDKSADFSPSSGVGVKNNIYAIQVMGICEVLIEYNFKIGNFSKNKFEDVLGLFTCYNKLSEILKEKAGKNKSTLGNRIARSFLSMGFVSTLLTALFRDNAQSHEESLAVLRSSTEFMRYAVSVALQKVQQLEEMGQTDGPDGQNPEKMFQNLCKITRVLLWRYTSIPTAVEESGKKKGKSISLLCLEGLLRIFNTMQQLYAARIPQFLQALDITDGDAEEADINVTEKAAFQIRQFQRSLVNQLSSAEDDFNSKETQLLITILSTLSKLLDPGSQQFLQFLTWTVKICKENALEDLSCCKGLLTLLFSLHVLYKSPVSLLRELAQDIHACLGDIDQDVEIESRSHFAIVNVKTAAPTVCLLVLGQADKVLEEVDWLIKRLTILGSDTSEDSTQASNQTQALEKGVILQLGTLLTVFHELVQTALPAGSCVDSLLRSLSKTYAILTSLIKHYIQACRSTSNTVPGRLEKLVKLSGSHLTPQCYSFITYVQNIHSESLSFAEEKKKKKKEDETAVVSTVMAKVLRDTKPIPNLIFAIEQYEKFLIHLSKKSKVNLMQYMKLSTSRDFRINASMLDSVLQEQNTEDAENEPDNNQSGTAEQPDENQEPQKKRRRKK

binding [2]: no binding (tested: 1 µM)
B2: His-tagged Gallus gallus FANCI (expressed alone) (protein, UniProt B0I564 1-1338)
chain: B1 chain

From publication doi:10.1101/858225
